Where “and” joins values, the source holds several entries; their conditions need not be identical. Equal values may be shown once. The list shows a part of the results. Results with a measured potency or affinity are listed apart. The source made no clear call on entries shown without one. Residues, ends and D or L forms follow the SMILES beside them. *: point of attachment. For = O=C*

This test is described as follows: protection from polyQ Htt cytotoxicity, dose response, PC12 cells, LDH release, LDH100 (AID 1596). To be noted: PC12 polyQ huntingtin toxicity; normalized LDH release: at 100 µM (top of the series); normalized LDH release (lower = protection): at 100 µM, stronger effect = lower value. For orientation: LDH in the medium is a marker of cell lysis.
With `NC[C@@H]1O[C@H](O[C@@H]2[C@@H](CO)OC(O[C@@H]3[C@@H](O)[C@H](N)C[C@H](N)[C@H]3OC3O[C@H](CO)[C@@H](O)[C@H](O)[C@H]3N)[C@@H]2O)[C@H](N)[C@@H](O)[C@@H]1O` (some centres undefined), the normalized LDH release (lower = protection) came to 1.2.

Compound `CC1(C)O[C@@H]2CC3C4C[C@H](F)C5=CC(=O)CC[C@]5(C)C4[C@@H](O)C[C@]3(C)[C@]2(C(=O)CO)O1` (some centres undefined) yielded a normalized LDH release (lower = protection) of 0.72.

Compound `CCCOc1ccccc1-c1nc2n[nH]nc2c(=O)[nH]1` gave a normalized LDH release (lower = protection) of 0.542.

In the case of `Nc1ncnc2c1ncn2[C@@H]1O[C@H](CO)[C@@H](O)[C@@H]1O`, the normalized LDH release (lower = protection) turned out to be 1.07.

Take `CO[C@@]1(NC(=O)Cc2cccs2)C(=O)N2C(C(=O)O)=C(COC(N)=O)CS[C@@H]21`: the normalized LDH release (lower = protection) was determined as 0.885.

As for `O=C(O)c1ccccc1Nc1cccc(C(F)(F)F)c1`, the normalized LDH release (lower = protection) is -0.109.

For the compound `CN(C)CCOC(=O)COc1ccc(Cl)cc1`, the normalized LDH release (lower = protection) came to 0.491.

The compound `CCn1cc(C(=O)O)c(=O)c2cnc(N3CCNCC3)nc21` displayed a normalized LDH release (lower = protection) of 0.912.

`CC(=O)NO` returned a normalized LDH release (lower = protection) of 0.611.

On to `CSCCC(NC=O)C(=O)NC(CC(C)C)C(=O)NC(Cc1ccccc1)C(=O)O` (centres undefined), for which the normalized LDH release (lower = protection) was determined as 0.427.

In turn, `CO[C@H]1/C=C/O[C@@]2(C)Oc3c(C)c(O)c4c(O)c(c(C=NN5CCN(C)CC5)c(O)c4c3C2=O)NC(=O)/C(C)=C\C=C\C(C)[C@H](O)[C@@H](C)[C@@H](O)[C@@H](C)[C@@H](OC(C)=O)[C@@H]1C` (some centres undefined) gave a normalized LDH release (lower = protection) of 0.298.

Turning to `C[N+](C)(C)CCCCCC[N+](C)(C)C`, the normalized LDH release (lower = protection) was 0.859.

In turn, `CCN(CC)CCNC(=O)c1ccc(N)cc1` came in with a normalized LDH release (lower = protection) of 1.07.

In turn, `O=C(Cn1ccnc1[N+](=O)[O-])NCCO` yielded a normalized LDH release (lower = protection) of 0.331.

With `Cc1onc(-c2ccccc2)c1C(=O)NC1C(=O)N2[C@@H]1SC(C)(C)[C@@H]2C(=O)O` (some centres undefined), the normalized LDH release (lower = protection) amounted to 0.82.

`O=C(COc1ccc(Cl)cc1)N1CCN(Cc2ccc3c(c2)OCO3)CC1` returned a normalized LDH release (lower = protection) of 0.598.

Turning to `NC(=O)c1cnccn1`, the normalized LDH release (lower = protection) was 0.553.

As for `CC1=C2C(=CO[C@H](C)[C@H]2C)C(=O)C(C(=O)O)=C1O`, the normalized LDH release (lower = protection) was 0.513.

Compound `O=C(O)c1cc(=O)c2ccccc2o1` showed a normalized LDH release (lower = protection) of 0.812.

Compound `COc1ccc2c3c1O[C@H]1C[C@@H](O)C=C[C@@]31CCN(C)C2` returned a normalized LDH release (lower = protection) of 0.993.

`CCN(CC)CCOc1ccc2c(c1)C(=O)c1cc(OCCN(CC)CC)ccc1-2` had a normalized LDH release (lower = protection) of 1.04.

Regarding `C=C(C)[C@H]1CC=C(C(=O)O)CC1`, the normalized LDH release (lower = protection) worked out at 0.867.

Turning to `CC(=O)OCC[N+](C)(C)C`, the normalized LDH release (lower = protection) was determined as 0.586.

With `Oc1cccc(O)c1`, the normalized LDH release (lower = protection) is 0.58.

The compound `COc1ccc([C@@H]2CC(=O)c3c(O)cc(O)cc3O2)cc1O` showed a normalized LDH release (lower = protection) of 1.12.

Turning to `CC(C[N+](C)(C)C)OC(N)=O` (centres undefined), the normalized LDH release (lower = protection) was determined as 0.881.

In turn, `N=c1nc(N2CCCCC2)cc(N)n1O` registered a normalized LDH release (lower = protection) of 0.748.

`CC[C@H]1OC(=O)[C@H](C)[C@@H](O[C@H]2C[C@@](C)(OC)[C@@H](O)[C@H](C)O2)[C@H](C)[C@@H](O[C@@H]2O[C@H](C)C[C@H](N(C)C)[C@H]2O)[C@](C)(O)C[C@@H](C)C(=O)[C@H](C)[C@@H](O)[C@]1(C)O`: the normalized LDH release (lower = protection) was 0.63 and 0.706 and 0.836.

In the case of `CSCCC(NC=O)C(=O)NC(Cc1ccccc1)C(=O)O` (stereo not drawn) (For-Met-Phe-OH; configuration not given here), the normalized LDH release (lower = protection) turned out to be 1.1.

The compound `CC(=O)N[C@@H](Cc1c[nH]c2ccccc12)C(=O)O` gave a normalized LDH release (lower = protection) of 0.551.

`CC1=NN(c2ccccc2)C(=O)C1`: the normalized LDH release (lower = protection) is 1.08.

As for `CN=C(NC#N)NCCSCc1nc[nH]c1C`, the normalized LDH release (lower = protection) is 0.77.

Take `Nc1ccc(C(=O)O)c(O)c1`: the normalized LDH release (lower = protection) turned out to be 0.936.

For `NC(=O)NO`, the normalized LDH release (lower = protection) turned out to be 0.685.

Compound `CC[C@]12CCCN3CCc4c(n(c5ccccc45)[C@](O)(C(=O)OC)C1)[C@@H]32` came in with a normalized LDH release (lower = protection) of 0.912.

In turn, `CCCC(C(=O)OCCN(CC)CC)(c1ccccc1)c1ccccc1` returned a normalized LDH release (lower = protection) of 0.874.

In turn, `CCC[C@@H]1C[C@@H](C(=O)NC(C(C)Cl)C2O[C@H](SC)[C@H](O)[C@@H](O)[C@H]2O)N(C)C1` (some centres undefined) displayed a normalized LDH release (lower = protection) of 0.54.

The compound `CC(=O)Oc1cccc(O)c1` gave a normalized LDH release (lower = protection) of 0.812.

Take `CCCN(CCC)S(=O)(=O)c1ccc(C(=O)O)cc1`: the normalized LDH release (lower = protection) amounted to 0.662.

Values taken from PubChem BioAssay.
